Data taken from PubChem BioAssay AID1259354 (Paczesny and Yang Labs, IUPUI and University of Michigan, 2018).
Where “and” joins values, the source holds several entries; their conditions need not be identical. Identical values can stand only once. In all, about 78,000 compounds went through this assay and about 1,800 (2.3%) were called active. The inconclusive results got no clear call from the source; some entries with a clear call stand among them for comparison. Cut-off read from the data, not from the text of the source: active = inhibition above about 30%; inconclusive = mostly about 10% to 28%; inactive = weaker than that.

Amino acid sequences for entries named in this document (tags omitted). A change or cut given only in a name is not applied to a line headed by its entry.
UniProt Q01638: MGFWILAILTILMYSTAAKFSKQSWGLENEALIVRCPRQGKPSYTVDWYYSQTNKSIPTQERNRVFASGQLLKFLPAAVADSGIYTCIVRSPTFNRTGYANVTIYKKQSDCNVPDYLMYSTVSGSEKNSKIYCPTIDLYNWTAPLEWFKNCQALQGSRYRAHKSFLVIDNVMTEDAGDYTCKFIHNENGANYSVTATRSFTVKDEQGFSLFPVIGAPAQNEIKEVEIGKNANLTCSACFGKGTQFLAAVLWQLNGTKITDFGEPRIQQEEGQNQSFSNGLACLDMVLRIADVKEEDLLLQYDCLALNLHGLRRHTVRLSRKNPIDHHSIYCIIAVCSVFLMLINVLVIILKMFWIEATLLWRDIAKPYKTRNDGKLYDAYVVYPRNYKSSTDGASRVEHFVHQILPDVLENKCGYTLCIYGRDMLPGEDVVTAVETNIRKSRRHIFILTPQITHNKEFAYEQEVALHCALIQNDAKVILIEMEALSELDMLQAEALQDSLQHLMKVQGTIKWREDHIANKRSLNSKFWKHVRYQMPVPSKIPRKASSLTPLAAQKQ

Each molecule was assayed against Interleukin-1 receptor-like 1 (Homo sapiens) (UniProt Q01638) (assay: blocks human ST2 binding to IL-33, primary screen, biochemical, AlphaLISA (AID 1259354)). Conditions: AlphaLISA ST2-Fc/biotin-IL-33 interaction, 1 h; at 17 µM, hits give high values.
For `Cc1ccc(C(C(=O)NCc2ccc(S(N)(=O)=O)cc2)N(C)C)cc1` (stereo not drawn), the inhibition was inconclusive: 12%.
`CN1CCc2c(sc3c2C(=O)NC(c2ccc(OC(=O)c4ccccc4Cl)cc2)N3)C1` (stereo not drawn) was tested, and the inhibition was inconclusive: 13%.
In the case of `Cc1nnsc1CN(C)Cc1c(-c2ccccc2)nc2ccccn12`, the inhibition is reported as “inactive”.
With `COc1ccc(CNC(=O)CCC2CCCN(Cc3cccc4c3OCO4)C2)c(OC)c1` (stereo not drawn) the inhibition was “inactive”.
For `Cc1cc(C)c(NC(=O)C2CCCCN2C23CC4CC(CC(C4)C2)C3)c(C)c1` (stereo not drawn), the inhibition was inconclusive: 25%.
For `CC(=O)N[C@H]1CO[C@H]2[C@@H]1OC[C@@H]2Nc1nccc(-c2ccc(-c3ccccc3)cc2)n1`, the inhibition was inconclusive: 19%.
In the case of `Cc1sc2nc(CCN)nc(N(C)CCc3ccccn3)c2c1C`, the inhibition is reported as “inactive”.
With `CCCOC1CCCN(C(=O)CCNC(=O)c2ccc(F)cc2)C1` (stereo not drawn) the inhibition was inconclusive: 11%.
In the case of `CSC1=N/C(=C\c2ccc(N(C)C)cc2)C(=O)S1`, the inhibition is reported as inconclusive: 27%.
`Cc1nc2ccccc2c(=O)n1Cc1cccnc1` was tested, and the inhibition was inconclusive: 13%.
`CN(C/C=C/c1ccccc1)C(=O)CC1C(=O)NCCN1Cc1ccoc1` (stereo not drawn) was tested, and the inhibition was “inactive”.
With `O=S(=O)(c1ccccc1)c1nc(-c2ccccc2F)oc1NCc1ccccc1` the inhibition was inconclusive: 20%.
`Cc1noc(C)c1C(=O)N1CCCC(N2CCN(c3cccc(C(F)(F)F)c3)CC2)C1` (stereo not drawn) was tested, and the inhibition was inconclusive: 10%.
In the case of `Cc1ccc(S(=O)(=O)Nc2c(-c3ccccc3)c3cc(Cl)ccc3[nH]c2=O)cc1`, the inhibition is reported as inconclusive: 13%.
`CCc1ccc(-c2nccn2CCSc2nncn2C)o1` was tested, and the inhibition was “inactive”.
For `Cc1cccc(/C=C2\CS/C(=C\c3cccc(C)c3)C2=O)c1`, the inhibition was active: 55%.
With `Cc1cccc(NC(=O)c2sc3nc4c(cc3c2N)CCC4)c1` the inhibition was inconclusive: 11%.
`C=CCc1cccc2cc(C(=O)Nc3cccc4c3C(=O)c3ccccc3C4=O)c(=O)oc12` was tested, and the inhibition was inconclusive: 17%.
`Cc1cc(C)n(CCNC(=O)CCc2c[nH]c3ccccc23)c(=O)n1` was tested, and the inhibition was “inactive”.
`O=C(Cc1ccccc1)Nc1ccc(C(=O)NCC2CCCO2)cc1` (stereo not drawn) was tested, and the inhibition was inconclusive: 16%.
With `CCO[C@H]1COC[C@@H]1NC1CCC2(CCNCC2)CC1` the inhibition was inconclusive: 12%.
`COc1ccccc1/C=C1\N=C(c2ccc(C)c([N+](=O)[O-])c2)OC1=O` was tested, and the inhibition was “inactive”.
For `Cc1ccc(Cc2nc3cc(C)c(C)cc3[nH]c2=O)c(C)c1`, the inhibition was “inactive”.
In the case of `COc1ccc(C=C2C(=O)OC(C)(C(C)(C)C)OC2=O)cc1` (stereo not drawn), the inhibition is reported as inconclusive: 10%.
`CCn1c(C2CCCN(Cc3ccc(-c4ccn[nH]4)s3)C2)nn(C)c1=O` (stereo not drawn) was tested, and the inhibition was inconclusive: 10%.
With `CC1COc2c(N3CCN(C)CC3)c(F)cc3c(=O)c(C(=O)O)cn1c23` (stereo not drawn) the inhibition was inconclusive: 23%.
In the case of `Cc1ccc(C2(O)CCN(C(=O)c3cccc(Cn4cccn4)c3)CC2)nc1`, the inhibition is reported as inconclusive: 13%.
For `O=C(NCC1CCCN(C(=O)CN2CCOC2=O)C1)c1ccc(-c2ccccc2)cc1` (stereo not drawn), the inhibition was “inactive”.
`CCOc1ccccc1N1C(=O)C2C(C1=O)[C@H]1C=C[C@@H]2CC1` (stereo partly drawn) was tested, and the inhibition was inconclusive: 13%.
With `CN(Cc1ccccc1)C(=O)C[C@@H]1O[C@H](CNS(=O)(=O)c2ccc(Cl)cc2)[C@@H](O)[C@H]1O` the inhibition was inconclusive: 12%.
With `COc1cc(NC(=O)c2ccccc2)c(OC)cc1NC(=O)CCCOc1ccccc1` the inhibition was “inactive”.
In the case of `CC(=O)N1CCN(C(=O)C[C@@H]2C[C@@H](C(C)C)[C@H](CNC(=O)c3ccc(C#N)cc3)C=C2C)CC1`, the inhibition is reported as inconclusive: 18%.
With `CCOc1ccc(-n2c(=O)[nH]c3sc(C)c(C)c3c2=O)cc1` the inhibition was “inactive”.
With `CC(C)Cc1noc(CN(C)C(=O)c2ncc[nH]2)n1` the inhibition was inconclusive: 16%.
In the case of `COc1cc(C(=O)Nc2ccc(NC(=O)C(C)(C)C)c(OC)c2)ccn1`, the inhibition is reported as inconclusive: 28%.
With `O=S1(=O)CCC(N=Cc2ccc(-c3ccc(Cl)cc3)o2)C1` (stereo not drawn) the inhibition was inconclusive: 27%.
In the case of `c1ccc(COC2CCCN(Cc3ccc4c(c3)OCCO4)C2)nc1` (stereo not drawn), the inhibition is reported as inconclusive: 23%.
In the case of `CC1=C/C(=N/OC(=O)c2ccccc2Cl)C(C)=CC1=O`, the inhibition is reported as inconclusive: 22%.
For `CCOC(=O)Nc1ccc(NCc2ccc(F)cc2)nc1N`, the inhibition was inconclusive: 11%.
For `CCCCOc1ccc(CSCCN)cc1`, the inhibition was “inactive”.
For `CCOC(=O)Cc1c(CN2CCN(C)CC2)c2ccccc2n1Cc1ccccc1`, the inhibition was inconclusive: 11%.
For `CCN(Cc1noc(C)n1)C(=O)CC1C(=O)NCCN1CC1CCCCC1` (stereo not drawn), the inhibition was “inactive”.
In the case of `Cc1cc(Cl)ccc1N=Cc1nc(-c2ccc(Cl)cc2)oc1O`, the inhibition is reported as inconclusive: 20%.
In the case of `CCOc1ccccc1NC(=O)CN(C)S(=O)(=O)c1ccc(Br)cc1`, the inhibition is reported as “inactive”.
`COc1ccc(CNC(=O)COc2cc(C)c(Br)c(C)c2)cc1` was tested, and the inhibition was “inactive”.
`COC(=O)C1Cc2c([nH]c3ccccc23)CN1` (stereo not drawn) was tested, and the inhibition was inconclusive: 16%.
In the case of `CCOc1ccccc1N1CCN(Cc2cc3c(cc2[N+](=O)[O-])OCO3)CC1`, the inhibition is reported as active: 30%.
For `CCS(=O)(=O)N1CCN(c2ccc([N+](=O)[O-])c(N3CCc4ccccc4C3)c2)CC1`, the inhibition was inconclusive: 17%.
For `COc1ccc2c(c1)N(C(=O)C(C)N1C(=O)c3ccccc3C1=O)C(C)(C)C=C2C` (stereo not drawn), the inhibition was “inactive”.
For `CCOc1ccccc1C(=O)Nc1cc(N2CCCS2(=O)=O)ccc1OC`, the inhibition was inconclusive: 16%.
In the case of `COc1ccc(Cl)cc1CN(C)C(=O)c1ccccc1C1CCNC1` (stereo not drawn), the inhibition is reported as inconclusive: 22%.
With `Nc1ccc(-c2cc(N)n(-c3ccccc3)n2)cc1` the inhibition was inconclusive: 17%.
`Cc1ccc(N2C(=O)CC(Sc3ccc(F)cc3)C2=O)cc1` (stereo not drawn) was tested, and the inhibition was inconclusive: 14%.
With `COc1ccc(OC)c(/C=C2/C=C(c3cc(OC)ccc3OC)OC2=O)c1` the inhibition was active: 41%.
`O=C1CC(NS(=O)(=O)c2ccsc2)CN1CCCc1ccccc1` (stereo not drawn) was tested, and the inhibition was “inactive”.
With `CC1(C)OC(=O)C(=Cc2ccc(I)o2)C(=O)O1` the inhibition was active: 93%.
With `COC(=O)c1cc2n(n1)CCCN(C(=O)CCN1CCCCO1)C2` the inhibition was “inactive”.
For `CCCCSc1nc2c(c(=O)n1-c1ccccc1)SCC2`, the inhibition was inconclusive: 11%.
In the case of `C=CCOc1ccc(/C=C2\SC(=O)N(CC(=O)N3CCOCC3)C2=O)cc1OC`, the inhibition is reported as active: 40%.
For `CCCOCC1CCN(c2cc(N(C)C)ncn2)C1` (stereo not drawn), the inhibition was inconclusive: 12%.
`COc1cccc(C2C(N3C(=O)c4ccccc4C3=O)C(=O)N2c2ccc(Cl)cc2)c1` (stereo not drawn) was tested, and the inhibition was inconclusive: 16%.
For `Cc1cccc(O)c1N=Cc1cc(C(=O)O)ccc1O`, the inhibition was inconclusive: 12%.
In the case of `COc1ccc2cc3cc(C(=O)Nc4ccc5c(c4)OCO5)oc3nc2c1`, the inhibition is reported as inconclusive: 28% and inconclusive: 25%.
`COc1ccc(C2=NN(S(=O)(=O)c3ccccc3)C(c3cccc([N+](=O)[O-])c3)C2)cc1` (stereo not drawn) was tested, and the inhibition was “inactive”.
`COc1ccc(-c2noc([C@@H]3C[C@H](NC(=O)Nc4cccc(C#N)c4)CN3C)n2)cc1` was tested, and the inhibition was inconclusive: 26%.
With `CN(CCNC(=O)CCN1CCCCCCC1)S(C)(=O)=O` the inhibition was inconclusive: 16%.
In the case of `CCCCN(C)C(=O)CCS(=O)(=O)c1cc(Br)cc2c1N(C(=O)CC)CC2`, the inhibition is reported as inconclusive: 15%.
With `O=C(O)CCCNS(=O)(=O)c1ccc(Br)c(C(=O)O)c1` the inhibition was “inactive”.
`Cc1cccc(C)c1N1C(=O)[C@H]2[C@@H](C1=O)[C@@]1(CO)C=C[C@H]2O1` was tested, and the inhibition was inconclusive: 18%.
For `O=C(CN1C(=O)c2ccc([N+](=O)[O-])cc2C1=O)Nc1cc(Cl)ccc1C(=O)O`, the inhibition was inconclusive: 29%.
`Cc1ccc2nc(NC(=O)CSc3nc(N)cc(=O)[nH]3)sc2c1` was tested, and the inhibition was inconclusive: 13%.
With `Cc1ccoc1C(=O)N1CCCC(O)(CN(C)C)CC1` (stereo not drawn) the inhibition was “inactive”.
For `COc1ccccc1-n1c(SCc2ccc([N+](=O)[O-])cc2)nc2c(c1=O)SCC2`, the inhibition was inconclusive: 11%.
For `O=C(CSCc1ccccc1Cl)Nc1cccc([N+](=O)[O-])c1`, the inhibition was inconclusive: 24%.
`O=C(O)C1CN=C(Cc2ccc(Cl)cc2)N1` (stereo not drawn) was tested, and the inhibition was “inactive”.
For `CSCC(=O)N1CCC(CCC(=O)Nc2ccc(F)c(Cl)c2)CC1`, the inhibition was “inactive”.
`CC(C)(CC(=O)O)CC(=O)N[C@H]1C[C@H]2C(=O)Nc3ccc(/C=C/c4ccccc4)cc3C(=O)N2C1` was tested, and the inhibition was inconclusive: 12%.
With `COc1cccc2c1NC(c1ccc(Br)cc1)C1CC=CC21` (stereo not drawn) the inhibition was active: 33%.
`Cc1ccc(N2C(=O)CC(Sc3nc(C)cc(C)c3C#N)C2=O)cc1` (stereo not drawn) was tested, and the inhibition was inconclusive: 11%.
In the case of `CN1CCc2c(sc3c2C(=O)NC(c2ccc(OC(=O)c4cccc5ccccc45)cc2)N3)C1` (stereo not drawn), the inhibition is reported as inconclusive: 13%.
In the case of `CCCC1=NN(c2nc3ccccc3s2)C(=O)/C1=C(/C)N1CCOCC1`, the inhibition is reported as inconclusive: 19%.
In the case of `CCC(NC(=O)Cc1nonc1C)c1ccccn1` (stereo not drawn), the inhibition is reported as “inactive”.
With `O=C1CC2(CCN(Cc3ccc(OCc4ccccn4)cc3)CC2)CN1` the inhibition was “inactive”.
For `O=C(COc1ccccc1)N[C@H]1CO[C@H]2[C@@H]1OC[C@H]2OC(=O)Nc1cccc2ccccc12`, the inhibition was inconclusive: 11%.
For `COc1ccccc1CCNc1nc2nonc2nc1NC1CC1`, the inhibition was inconclusive: 10%.
In the case of `O=C(N/C(=C/c1cccs1)C(=O)N1CCOCC1)c1ccco1`, the inhibition is reported as inconclusive: 10%.
`Cc1nc2c(c(N(C)C)n1)CCN(C(=O)c1cc(C(C)C)nn1C)C2` was tested, and the inhibition was inconclusive: 15%.
With `COc1ccc(Cl)cc1NS(=O)(=O)c1cccnc1` the inhibition was “inactive”.
For `O=C1CC(c2ccc(O[C@@H]3O[C@H](CO)[C@@H](O)[C@H](O)[C@H]3O)cc2)Oc2cc(O)ccc21` (stereo partly drawn), the inhibition was “inactive”.
`Cc1[nH]c2ccccc2c1SCCNC(=O)COc1ccc(Cl)cc1Cl` was tested, and the inhibition was inconclusive: 13%.
`Cc1nc(C)c(-c2csc(NCc3ccco3)n2)s1` was tested, and the inhibition was inconclusive: 15%.
In the case of `O=C1N[C@@H]2CCN(S(=O)(=O)c3cccc(F)c3)[C@@H]2C(=O)N1c1ccc(F)cc1`, the inhibition is reported as inconclusive: 16%.
In the case of `CCOC(=O)C1(Cc2ccccc2C)CCCN(S(=O)(=O)c2cccs2)C1` (stereo not drawn), the inhibition is reported as inconclusive: 21%.
